Source: the supplement of paper PMC7666118
This is one part of the list.

Protein sequences, listed by entry. Tags and fused reporters are not part of them. Lines headed by an entry give the natural chain unless they say otherwise; changes in a name come on top.
UniProt Q9NYZ3: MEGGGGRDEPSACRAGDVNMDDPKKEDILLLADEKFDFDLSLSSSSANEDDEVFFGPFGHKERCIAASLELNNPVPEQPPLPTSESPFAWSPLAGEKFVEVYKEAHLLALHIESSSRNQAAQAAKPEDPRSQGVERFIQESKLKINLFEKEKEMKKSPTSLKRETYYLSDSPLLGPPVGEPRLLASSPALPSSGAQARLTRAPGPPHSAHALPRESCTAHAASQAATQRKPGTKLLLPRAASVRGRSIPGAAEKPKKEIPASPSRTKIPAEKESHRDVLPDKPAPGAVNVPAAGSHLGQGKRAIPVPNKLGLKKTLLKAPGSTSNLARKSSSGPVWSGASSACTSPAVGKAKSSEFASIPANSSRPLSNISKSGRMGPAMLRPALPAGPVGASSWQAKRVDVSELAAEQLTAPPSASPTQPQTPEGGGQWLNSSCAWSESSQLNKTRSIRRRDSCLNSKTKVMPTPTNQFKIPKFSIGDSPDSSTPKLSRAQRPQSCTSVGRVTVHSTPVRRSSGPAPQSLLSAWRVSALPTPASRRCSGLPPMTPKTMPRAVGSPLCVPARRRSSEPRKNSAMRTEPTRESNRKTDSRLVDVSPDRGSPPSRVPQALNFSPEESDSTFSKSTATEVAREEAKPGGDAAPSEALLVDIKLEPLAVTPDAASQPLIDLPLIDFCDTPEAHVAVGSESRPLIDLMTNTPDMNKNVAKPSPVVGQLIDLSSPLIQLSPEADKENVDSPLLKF
UniProt Q9ULT8: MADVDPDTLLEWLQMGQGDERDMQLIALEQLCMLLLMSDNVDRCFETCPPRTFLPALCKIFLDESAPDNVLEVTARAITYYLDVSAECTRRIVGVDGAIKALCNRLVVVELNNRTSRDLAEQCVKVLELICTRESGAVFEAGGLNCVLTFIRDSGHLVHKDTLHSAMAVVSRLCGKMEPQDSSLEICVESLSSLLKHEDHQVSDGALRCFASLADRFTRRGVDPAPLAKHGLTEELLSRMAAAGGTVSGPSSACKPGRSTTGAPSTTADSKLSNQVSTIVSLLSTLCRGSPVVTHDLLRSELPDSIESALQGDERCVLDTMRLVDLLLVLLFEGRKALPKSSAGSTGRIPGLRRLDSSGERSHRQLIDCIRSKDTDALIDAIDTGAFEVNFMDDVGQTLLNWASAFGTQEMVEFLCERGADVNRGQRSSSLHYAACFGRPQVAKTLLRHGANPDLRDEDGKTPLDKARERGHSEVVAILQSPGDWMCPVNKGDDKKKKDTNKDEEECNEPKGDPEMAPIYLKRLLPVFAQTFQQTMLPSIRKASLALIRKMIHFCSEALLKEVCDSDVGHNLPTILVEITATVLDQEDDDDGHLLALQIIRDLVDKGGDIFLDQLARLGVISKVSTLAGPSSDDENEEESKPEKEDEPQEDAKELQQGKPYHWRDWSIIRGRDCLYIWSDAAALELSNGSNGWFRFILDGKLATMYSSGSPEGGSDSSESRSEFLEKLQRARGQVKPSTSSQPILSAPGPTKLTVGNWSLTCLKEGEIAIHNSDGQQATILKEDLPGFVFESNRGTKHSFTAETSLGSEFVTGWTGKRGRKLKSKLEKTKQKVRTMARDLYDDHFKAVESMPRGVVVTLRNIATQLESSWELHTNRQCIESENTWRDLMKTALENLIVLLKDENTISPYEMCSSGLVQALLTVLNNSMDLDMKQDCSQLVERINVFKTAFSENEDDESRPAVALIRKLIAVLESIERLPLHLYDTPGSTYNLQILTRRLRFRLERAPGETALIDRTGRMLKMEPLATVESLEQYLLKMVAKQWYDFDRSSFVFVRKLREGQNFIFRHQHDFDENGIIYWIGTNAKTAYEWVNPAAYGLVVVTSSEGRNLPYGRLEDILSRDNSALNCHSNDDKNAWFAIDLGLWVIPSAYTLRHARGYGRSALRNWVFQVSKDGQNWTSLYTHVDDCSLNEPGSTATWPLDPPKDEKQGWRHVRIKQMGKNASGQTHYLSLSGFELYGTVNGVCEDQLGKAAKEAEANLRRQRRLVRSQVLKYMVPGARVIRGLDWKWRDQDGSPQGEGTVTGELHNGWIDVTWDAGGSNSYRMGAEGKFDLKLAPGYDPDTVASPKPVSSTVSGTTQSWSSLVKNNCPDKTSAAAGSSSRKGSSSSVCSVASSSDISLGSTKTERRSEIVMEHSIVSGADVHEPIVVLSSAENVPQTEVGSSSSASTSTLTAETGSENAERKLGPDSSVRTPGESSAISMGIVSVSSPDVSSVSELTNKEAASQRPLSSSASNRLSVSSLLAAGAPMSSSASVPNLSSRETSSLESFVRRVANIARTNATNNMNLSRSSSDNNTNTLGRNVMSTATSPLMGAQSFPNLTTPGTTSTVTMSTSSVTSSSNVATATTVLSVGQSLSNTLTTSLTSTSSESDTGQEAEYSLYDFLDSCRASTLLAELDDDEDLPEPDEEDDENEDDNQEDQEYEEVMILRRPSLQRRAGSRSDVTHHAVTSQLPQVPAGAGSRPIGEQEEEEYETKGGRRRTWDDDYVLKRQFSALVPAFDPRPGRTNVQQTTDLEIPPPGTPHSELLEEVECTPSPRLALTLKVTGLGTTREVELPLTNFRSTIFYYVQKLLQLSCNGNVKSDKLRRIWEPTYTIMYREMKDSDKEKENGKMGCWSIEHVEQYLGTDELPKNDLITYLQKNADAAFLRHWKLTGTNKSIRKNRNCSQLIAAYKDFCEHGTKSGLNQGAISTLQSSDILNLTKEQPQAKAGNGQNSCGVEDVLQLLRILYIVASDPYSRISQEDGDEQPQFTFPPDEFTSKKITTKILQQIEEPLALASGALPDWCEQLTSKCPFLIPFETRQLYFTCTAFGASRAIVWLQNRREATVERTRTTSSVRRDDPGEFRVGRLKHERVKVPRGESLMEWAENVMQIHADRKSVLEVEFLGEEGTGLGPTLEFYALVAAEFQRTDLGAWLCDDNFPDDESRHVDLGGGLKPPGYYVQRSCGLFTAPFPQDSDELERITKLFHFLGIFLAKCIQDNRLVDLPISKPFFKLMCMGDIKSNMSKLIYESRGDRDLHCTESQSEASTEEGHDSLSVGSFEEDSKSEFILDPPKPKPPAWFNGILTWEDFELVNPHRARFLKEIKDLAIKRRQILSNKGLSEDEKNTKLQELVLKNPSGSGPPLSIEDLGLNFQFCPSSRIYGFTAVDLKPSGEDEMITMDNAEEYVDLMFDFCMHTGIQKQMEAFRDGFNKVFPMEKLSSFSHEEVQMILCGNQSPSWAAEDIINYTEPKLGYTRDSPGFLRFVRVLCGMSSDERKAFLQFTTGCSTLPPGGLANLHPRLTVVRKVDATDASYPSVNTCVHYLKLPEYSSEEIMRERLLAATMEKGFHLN
UniProt P36915, whole entry: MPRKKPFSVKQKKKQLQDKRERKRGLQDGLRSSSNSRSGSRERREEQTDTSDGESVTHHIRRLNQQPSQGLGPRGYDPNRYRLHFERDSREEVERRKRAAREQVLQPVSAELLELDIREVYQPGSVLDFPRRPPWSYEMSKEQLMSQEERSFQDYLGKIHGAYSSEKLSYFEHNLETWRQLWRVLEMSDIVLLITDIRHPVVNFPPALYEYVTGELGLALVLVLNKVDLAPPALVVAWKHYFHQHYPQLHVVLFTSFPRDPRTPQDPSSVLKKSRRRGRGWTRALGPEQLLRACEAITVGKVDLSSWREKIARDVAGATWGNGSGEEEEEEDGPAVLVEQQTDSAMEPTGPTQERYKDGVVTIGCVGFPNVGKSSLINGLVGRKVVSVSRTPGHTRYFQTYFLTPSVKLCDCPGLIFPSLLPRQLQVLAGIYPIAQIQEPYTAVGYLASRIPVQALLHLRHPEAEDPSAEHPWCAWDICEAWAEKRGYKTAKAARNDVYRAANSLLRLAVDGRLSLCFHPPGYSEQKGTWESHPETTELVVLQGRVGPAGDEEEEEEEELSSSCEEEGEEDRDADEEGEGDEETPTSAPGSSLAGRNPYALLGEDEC
UniProt P52657, whole entry: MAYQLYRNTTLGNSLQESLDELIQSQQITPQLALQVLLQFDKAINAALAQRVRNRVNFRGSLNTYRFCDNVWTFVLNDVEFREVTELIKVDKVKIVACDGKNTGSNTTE
UniProt Q92947: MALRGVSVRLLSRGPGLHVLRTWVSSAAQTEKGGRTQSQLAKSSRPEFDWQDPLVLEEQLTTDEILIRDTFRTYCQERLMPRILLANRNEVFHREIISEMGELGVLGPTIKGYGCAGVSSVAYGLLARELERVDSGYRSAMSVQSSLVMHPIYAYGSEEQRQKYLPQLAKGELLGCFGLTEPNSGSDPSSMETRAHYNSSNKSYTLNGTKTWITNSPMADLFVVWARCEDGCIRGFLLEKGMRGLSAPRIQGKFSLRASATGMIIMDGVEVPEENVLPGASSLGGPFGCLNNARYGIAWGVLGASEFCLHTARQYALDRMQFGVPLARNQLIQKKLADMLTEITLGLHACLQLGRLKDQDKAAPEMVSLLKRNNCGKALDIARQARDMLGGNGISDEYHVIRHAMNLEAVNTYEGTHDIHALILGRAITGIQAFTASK
UniProt Q9P2T1: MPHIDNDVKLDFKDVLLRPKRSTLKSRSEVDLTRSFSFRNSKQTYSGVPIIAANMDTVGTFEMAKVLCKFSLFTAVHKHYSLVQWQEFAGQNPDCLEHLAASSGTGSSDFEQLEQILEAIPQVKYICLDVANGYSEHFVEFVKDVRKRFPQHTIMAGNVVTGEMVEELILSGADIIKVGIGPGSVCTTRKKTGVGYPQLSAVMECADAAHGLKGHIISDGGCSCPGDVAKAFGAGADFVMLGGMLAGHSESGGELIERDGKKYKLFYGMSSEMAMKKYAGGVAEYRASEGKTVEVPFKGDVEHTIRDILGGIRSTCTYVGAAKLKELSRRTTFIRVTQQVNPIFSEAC
UniProt P55789: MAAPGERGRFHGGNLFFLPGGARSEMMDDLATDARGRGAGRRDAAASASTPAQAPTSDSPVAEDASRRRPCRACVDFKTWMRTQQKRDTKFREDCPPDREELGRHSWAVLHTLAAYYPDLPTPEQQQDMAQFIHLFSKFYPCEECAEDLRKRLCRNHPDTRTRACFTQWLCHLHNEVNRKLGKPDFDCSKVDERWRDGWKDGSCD
UniProt P16402, whole entry: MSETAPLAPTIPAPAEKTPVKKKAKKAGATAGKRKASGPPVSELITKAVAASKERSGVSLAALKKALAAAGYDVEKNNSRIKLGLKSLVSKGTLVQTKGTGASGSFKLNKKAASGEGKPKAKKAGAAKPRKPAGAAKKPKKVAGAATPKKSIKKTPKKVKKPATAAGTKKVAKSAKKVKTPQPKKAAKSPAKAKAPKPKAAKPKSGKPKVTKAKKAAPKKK
UniProt O95749: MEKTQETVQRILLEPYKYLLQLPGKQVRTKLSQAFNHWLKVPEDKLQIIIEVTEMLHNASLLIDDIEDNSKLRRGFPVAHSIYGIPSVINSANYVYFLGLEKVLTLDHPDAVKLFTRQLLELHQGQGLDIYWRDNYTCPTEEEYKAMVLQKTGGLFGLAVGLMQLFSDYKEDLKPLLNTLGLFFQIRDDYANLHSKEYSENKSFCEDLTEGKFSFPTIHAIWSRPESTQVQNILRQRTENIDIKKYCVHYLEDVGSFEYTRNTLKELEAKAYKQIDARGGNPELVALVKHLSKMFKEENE
UniProt Q68CQ7: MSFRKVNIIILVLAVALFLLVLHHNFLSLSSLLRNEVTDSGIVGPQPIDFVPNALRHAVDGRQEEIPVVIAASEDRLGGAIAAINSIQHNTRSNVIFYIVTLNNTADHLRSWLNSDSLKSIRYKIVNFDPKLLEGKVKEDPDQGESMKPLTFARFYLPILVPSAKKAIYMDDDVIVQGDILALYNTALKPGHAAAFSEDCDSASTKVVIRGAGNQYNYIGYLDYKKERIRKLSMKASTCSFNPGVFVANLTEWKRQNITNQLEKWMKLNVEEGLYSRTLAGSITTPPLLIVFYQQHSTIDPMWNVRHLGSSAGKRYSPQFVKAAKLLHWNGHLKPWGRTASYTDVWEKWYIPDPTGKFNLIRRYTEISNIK
UniProt Q9UHW5, whole entry: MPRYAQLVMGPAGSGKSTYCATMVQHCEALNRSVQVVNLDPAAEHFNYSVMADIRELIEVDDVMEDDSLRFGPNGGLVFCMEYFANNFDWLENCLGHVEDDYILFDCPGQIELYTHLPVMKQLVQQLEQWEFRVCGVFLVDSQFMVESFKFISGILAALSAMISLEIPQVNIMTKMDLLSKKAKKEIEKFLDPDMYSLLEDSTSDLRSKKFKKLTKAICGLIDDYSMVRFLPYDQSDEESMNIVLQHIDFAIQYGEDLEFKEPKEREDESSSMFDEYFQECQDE
UniProt P29084: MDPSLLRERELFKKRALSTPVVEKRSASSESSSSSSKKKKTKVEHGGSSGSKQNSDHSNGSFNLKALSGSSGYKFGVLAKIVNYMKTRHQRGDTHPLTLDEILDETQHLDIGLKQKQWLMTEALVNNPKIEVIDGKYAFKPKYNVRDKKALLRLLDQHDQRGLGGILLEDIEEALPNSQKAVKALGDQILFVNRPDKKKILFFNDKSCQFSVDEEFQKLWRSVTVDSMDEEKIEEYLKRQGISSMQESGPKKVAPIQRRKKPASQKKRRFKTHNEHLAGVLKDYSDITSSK

Compound: COc1ccc(Cn2ccc3ccc(C(=O)NO)cc32)cc1
Experiment: dose-dependent thermal stabilisation call (2D-TPP, DLPTP, 10% FDR) (binary (1 = stabilised)); higher = stabilised by the compound
Conditions: system: HL-60 intact cells; concentration range 0.04-10 µM

Target | dose-dependent thermal stabilisation call
GTF2B (UniProt Q00403) | inactive: 0
GNPNAT1 (UniProt Q96EK6) | inactive: 0
GSS (UniProt P48637) | inactive: 0
GTSE1 (UniProt Q9NYZ3) | inactive: 0
HECTD1 (UniProt Q9ULT8) | inactive: 0
GIT1 (UniProt Q9Y2X7) | inactive: 0
GNL1 (UniProt P36915) | inactive: 0
HERC4 (UniProt Q5GLZ8) | inactive: 0
GPATCH2 (UniProt Q9NW75) | inactive: 0
GMPPB (UniProt Q9Y5P6) | inactive: 0
GTPBP4 (UniProt Q9BZE4) | inactive: 0
GGNBP2 (UniProt Q9H3C7) | inactive: 0
GTF2A2 (UniProt P52657) | inactive: 0
GOLPH3L (UniProt Q9H4A5) | inactive: 0
GCDH (UniProt Q92947) | active: 1
GSTCD (UniProt Q8NEC7) | active: 1
GMPR2 (UniProt Q9P2T1) | inactive: 0
GSTK1 (UniProt Q9Y2Q3) | inactive: 0
GFER (UniProt P55789) | inactive: 0

Target | dose-dependent thermal stabilisation call
HM13 (UniProt Q8TCT9) | inactive: 0
GPR180 (UniProt Q86V85) | inactive: 0
GPN1 (UniProt Q9HCN4) | inactive: 0
HIST1H1D (UniProt P16402) | inactive: 0
GLOD4 (UniProt Q9HC38) | inactive: 0
GRIPAP1 (UniProt Q4V328) | inactive: 0
GGPS1 (UniProt O95749) | inactive: 0
GNB2L1 (UniProt P63244) | inactive: 0
GYS1 (UniProt P13807) | inactive: 0
GLT8D1 (UniProt Q68CQ7) | inactive: 0
HK2 (UniProt P52789) | inactive: 0
GPN3 (UniProt Q9UHW5) | inactive: 0
GIT2 (UniProt Q14161) | inactive: 0
GTF2E2 (UniProt P29084) | inactive: 0
GOLPH3 (UniProt Q9H4A6) | inactive: 0
GK (UniProt P32189) | inactive: 0
HDAC6 (UniProt Q9UBN7) | active: 1
GRWD1 (UniProt Q9BQ67) | inactive: 0

Individual results from above:
Value of HM13 (UniProt Q8TCT9) under dose-dependent thermal stabilisation call: inactive: 0
Value of GLT8D1 (UniProt Q68CQ7) under dose-dependent thermal stabilisation call: inactive: 0
